Results: article PMC4693281
Positions count from the first letter of the chain named. These are yes or no findings as the source states them, for the method shown. Binding seen in cells or lysates may run through a third protein. Some results given as binding are weak or reduced against the parent protein; the word gives no strength. Where a sequence is shown, tags or fusion partners need not be part of it.

How the values were obtained:
Assay in all cases: pull-down; FLAG- and S-tagged ZP4 co-expressed with His- and S-tagged ZP3 fragment in Sf9 cells (48 h, 27 °C); culture supernatant mixed with TALON resin 1 h at room temperature, washed three times with PBS; ZP4 in pellet and supernatant detected by anti-FLAG Western blot; ZP4 expressed alone as background
[1] = target: T1, bovine ZP3 fragment Arg-32 to Glu-178, N-terminal His-tag and S-tag (bovine) (UniProt P48830)
T1 sequence (chain, N-glycosylated Asn-124 and Asn-146): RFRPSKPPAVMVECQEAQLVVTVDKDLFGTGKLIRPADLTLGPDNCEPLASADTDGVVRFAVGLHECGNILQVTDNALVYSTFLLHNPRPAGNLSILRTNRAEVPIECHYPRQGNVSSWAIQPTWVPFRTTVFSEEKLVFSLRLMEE

[2] = target: T2, bovine ZP3 fragment 32-149, N-terminal His-tag and S-tag (bovine) (UniProt P48830)
T2 sequence: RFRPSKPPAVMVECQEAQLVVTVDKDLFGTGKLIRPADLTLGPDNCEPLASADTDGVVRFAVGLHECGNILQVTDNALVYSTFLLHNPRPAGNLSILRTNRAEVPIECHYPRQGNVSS

[3] = target: T3, bovine ZP3 fragment Arg-32 to Lys-168, N-terminal His-tag and S-tag (bovine) (UniProt P48830)
T3 sequence: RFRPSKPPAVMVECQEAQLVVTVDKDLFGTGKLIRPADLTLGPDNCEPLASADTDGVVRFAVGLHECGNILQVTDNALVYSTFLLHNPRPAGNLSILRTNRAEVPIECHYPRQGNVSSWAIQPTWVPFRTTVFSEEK

[4] = target: T4, bovine ZP3 C-terminal fragment Gln-144 to Arg-348, N-terminal His-tag and S-tag (bovine) (UniProt P48830)
T4 sequence: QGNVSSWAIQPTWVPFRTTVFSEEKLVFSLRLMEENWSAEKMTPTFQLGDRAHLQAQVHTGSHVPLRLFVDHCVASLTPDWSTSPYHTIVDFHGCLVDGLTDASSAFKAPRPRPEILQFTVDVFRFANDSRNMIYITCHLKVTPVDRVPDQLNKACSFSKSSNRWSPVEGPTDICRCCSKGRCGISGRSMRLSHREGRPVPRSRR

[5] = target: T5, bovine ZP3 fragment 32-178 with Asn-146 mutated to Asp, N-terminal His-tag and S-tag (bovine) (UniProt P48830)
T5 sequence (chain, N-glycosylated Asn-124): T1 sequence (chain, N-glycosylated Asn-124 and Asn-146) with N115D

[6] = target: T6, bovine ZP3 fragment 32-178 with Asn-124 mutated to Asp, N-terminal His-tag and S-tag (bovine) (UniProt P48830)
T6 sequence (chain, N-glycosylated Asn-146): T1 sequence (chain, N-glycosylated Asn-124 and Asn-146) with N93D

[7] = target: T7, bovine ZP3 fragment Arg-32 to Arg-160, N-terminal His-tag and S-tag (bovine) (UniProt P48830)
T7 sequence: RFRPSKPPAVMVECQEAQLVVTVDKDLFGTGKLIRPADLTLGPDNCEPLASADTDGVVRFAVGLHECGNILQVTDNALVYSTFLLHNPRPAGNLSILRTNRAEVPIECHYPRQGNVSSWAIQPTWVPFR

[8] = target: T8, bovine ZP3 C-terminal fragment Glu-177 to Arg-348, N-terminal His-tag and S-tag (bovine) (UniProt P48830)
T8 sequence: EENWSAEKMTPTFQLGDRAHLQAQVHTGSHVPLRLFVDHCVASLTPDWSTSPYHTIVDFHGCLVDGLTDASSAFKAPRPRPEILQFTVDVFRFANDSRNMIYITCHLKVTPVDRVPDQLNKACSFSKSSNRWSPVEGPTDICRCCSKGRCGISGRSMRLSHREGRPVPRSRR

[9] = target: T9, bovine ZP3 fragment Arg-32 to Thr-155, N-terminal His-tag and S-tag (bovine) (UniProt P48830)
T9 sequence: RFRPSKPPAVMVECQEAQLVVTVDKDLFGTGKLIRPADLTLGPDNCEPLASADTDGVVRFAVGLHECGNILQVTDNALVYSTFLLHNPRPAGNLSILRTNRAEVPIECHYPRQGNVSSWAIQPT

binding [1]: binds
binding [2]: binds weakly
binding [3]: binds
binding [4]: binds
binding [5]: binds
binding [6]: binds
binding [7]: binds
binding [8]: binds
binding [9]: binds weakly
B1: bovine ZP4 (Lys-25 to Arg-464) with N-terminal FLAG-tag and S-tag (domain or fragment, UniProt Q9BH11 25-464)
chain: KVPEYPDELRCGLRSFQFTINPLSQETETPPVLVAWDNHGLPHSLQNDSDCGTWVSEGPGSSLVGEASYSGCYVTEWESYYIMTVGIERAGVSGSGAFIETKLFKCPVNLPDVPNAGLCDSVPVWDRLPCAPSPITQGDCKQLGCCYNSEEVISCYYGNTVTSHCTQDGHFSIAVSRNVTSPPLLLNSVHLAFRNDSECKPVMATHTFVLFRFPFTTCGTTKQITGKQAVYENELVAARDVRTWSRGSITRDSTFRLQVSCSYSASSSALPVNVQVLTLPPPLPETQPGNLTLELKIAKDKRYRSYYTASDYPVVKLLRDPIYVEVSIHQRTDPSLELRLDQCWATPGADALLQPQWPLLVNGCPYTGDNYQTKLIPVWEASDLPFPSHYQRFSISTFSFVDSVAKRALKGPVYLHCSASVCQPAGTPSCVTLCPARRRR
